Experimental data published in article PMC11642102.
Results are given in words; binding and its absence hold for the method and conditions named. Binding seen in cells or lysates may run through a third protein. Some entries that bind do so weakly or less than the wild type.

Amino acid sequences for entries named in this document (tags omitted).
UniProt Q9JK66: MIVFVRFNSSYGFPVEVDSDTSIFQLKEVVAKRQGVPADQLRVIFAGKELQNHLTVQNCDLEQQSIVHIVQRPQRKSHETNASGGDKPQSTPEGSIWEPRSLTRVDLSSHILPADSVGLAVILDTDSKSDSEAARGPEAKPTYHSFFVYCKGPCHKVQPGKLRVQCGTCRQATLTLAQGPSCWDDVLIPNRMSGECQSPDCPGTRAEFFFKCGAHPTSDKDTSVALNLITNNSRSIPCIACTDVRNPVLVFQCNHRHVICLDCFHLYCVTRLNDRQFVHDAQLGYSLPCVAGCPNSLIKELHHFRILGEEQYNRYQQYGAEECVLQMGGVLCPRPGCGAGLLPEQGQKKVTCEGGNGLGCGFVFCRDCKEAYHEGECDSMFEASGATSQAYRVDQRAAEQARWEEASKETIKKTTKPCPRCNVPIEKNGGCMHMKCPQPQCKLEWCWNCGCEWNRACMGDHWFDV
UniProt Q01827: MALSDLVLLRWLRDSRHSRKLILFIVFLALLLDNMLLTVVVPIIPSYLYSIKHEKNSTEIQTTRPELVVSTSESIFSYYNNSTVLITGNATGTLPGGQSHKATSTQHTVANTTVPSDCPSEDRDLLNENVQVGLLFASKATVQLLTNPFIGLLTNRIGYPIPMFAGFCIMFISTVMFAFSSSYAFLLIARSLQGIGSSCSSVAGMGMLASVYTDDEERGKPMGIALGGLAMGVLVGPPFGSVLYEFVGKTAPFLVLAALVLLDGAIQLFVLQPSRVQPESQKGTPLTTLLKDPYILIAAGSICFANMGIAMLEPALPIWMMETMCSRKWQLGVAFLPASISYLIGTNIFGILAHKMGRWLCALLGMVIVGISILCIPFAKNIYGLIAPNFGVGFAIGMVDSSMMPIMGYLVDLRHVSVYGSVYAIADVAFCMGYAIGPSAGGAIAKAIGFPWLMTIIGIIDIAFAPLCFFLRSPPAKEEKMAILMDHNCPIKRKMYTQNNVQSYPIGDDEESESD

Experiments:
[1] = molecular target: parkin (rat (endogenous in Sprague Dawley rat striatum)) (UniProt Q9JK66); test: co-IP; Dynabeads with anti-parkin (Prk8) or anti-VMAT2 (NBP1-69750H) antibody, incubated 12 h at 4 °C with rat striatal synaptosomal fractions (100-200 µg), washed three times with PBS 0.02% Tween-20; blot for CDCrel-1; rats untreated, or saline or binge METH (4 x 8 mg/kg) and killed 1 h later
[2] = molecular target: vesicular monoamine transporter-2 (VMAT2) (rat (endogenous in Sprague Dawley rat striatum)) (UniProt Q01827); test: as above

B1: cell division cycle related-1 (CDCrel-1) (protein, UniProt Q9JJM9 1-369)
chain: MSTGLRYKSKLATPEDKQDIDKQYVGFATLPNQVHRKSVKKGFDFTLMVAGESGLGKSTLVHSLFLTDLYKDRKLLSAEERINQTVEILKHTVDIEEKGVKLKLTIVDTPGFGDAVNNFECWKPITDYVDQQFEQYFRDESGLNRKNIQDNRVHCCLYFISPFGHGLRPVDVGFMKALHEKVNIVPLIAKADCLVPSEIRKLKDRIREEIDKFGIHVYQFPECDSDEDEDFKQQDRELKESAPFAVIGSNTVVEAKGQRVRGRLYPWGIVEVENQAHCDFVKLRNMLIRTHMHDLKDVTCDVHYENYRAHCIQQMTSKLTQDSRMESPIPILPLPTPDSETEKLIRMKDEELRRMQEMLQKMKQRMQDQ
[1]
  binding: binds weakly
[2]
  binding: binds
